# Screening data

By UniProt entry, the sequences of proteins in these tests, tags left out.
UniProt P04062, whole entry, target on record: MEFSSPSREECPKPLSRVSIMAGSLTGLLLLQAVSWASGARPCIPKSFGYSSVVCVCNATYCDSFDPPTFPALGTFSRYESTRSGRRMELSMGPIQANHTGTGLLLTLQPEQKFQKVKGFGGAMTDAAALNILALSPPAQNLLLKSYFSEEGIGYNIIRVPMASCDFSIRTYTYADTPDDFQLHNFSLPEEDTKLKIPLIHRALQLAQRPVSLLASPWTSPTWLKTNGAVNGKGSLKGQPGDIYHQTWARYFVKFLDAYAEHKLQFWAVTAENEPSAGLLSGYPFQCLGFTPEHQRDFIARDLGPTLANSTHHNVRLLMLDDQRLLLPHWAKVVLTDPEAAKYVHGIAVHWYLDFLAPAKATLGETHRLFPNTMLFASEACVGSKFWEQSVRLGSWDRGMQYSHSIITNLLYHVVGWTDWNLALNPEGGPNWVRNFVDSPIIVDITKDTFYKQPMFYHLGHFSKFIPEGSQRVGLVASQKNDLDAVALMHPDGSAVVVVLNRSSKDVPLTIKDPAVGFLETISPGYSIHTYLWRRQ

The results are deposited in PubChem (AID360; NCATS, 2006).

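Cleavage of a resorufin-linked glucose substrate by isolated lysosomal acid glucosylceramidase was followed by fluorescence over a 20-minute room-temperature incubation.
Each compound was run as a titration series spanning about 0.6 nM up to 50 µM final.
The number is the fitted half-maximal concentration (AC50); a lower value means a more potent inhibitor.
The record treats a '>' qualifier as no measurable activity (inactive); no explicit numeric cut-off is stated.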

Values are in nM.
Every entry below has the call inactive.
These are entries filed as inactive; the hits of the assay are not listed here.

Compound | fitted potency (nM)
CCn1c(=O)cc(SCC(=O)NCc2cccnc2)c2ccccc21 | >76900
C=C(C)CSc1nnc(-c2cccc(Cl)c2)n1N | >76900
CCn1c(Cn2nnc(-c3ccccc3)n2)nnc1SCc1ccc(Cl)c(Cl)c1 | >76900
N#CCOc1nc(N2CCOCC2)nc(N2CCOCC2)n1 | >76900
COc1ccc(NC(=O)CN(c2cccc(F)c2)S(C)(=O)=O)cc1OC | >76900
O=C(NCc1ccccn1)c1cc(S(=O)(=O)N2CCN(c3ccccc3)CC2)ccc1Cl | >76900
CN=c1sc(C(=O)Nc2cccc(Cl)c2)cc(=O)n1C | >76900
COc1cccc(N2CCN(Cc3nc4ccccc4c(=O)[nH]3)CC2)c1 | >76900
CCCN1C(=O)C2(C(C(=O)c3ccc(C)o3)=C(O)C(=O)N2CCCN2CCOCC2)c2ccccc21 (stereo unspecified) | >76900
Cc1nc2nc(Cc3ccccc3)[nH]n2c(=O)c1Cc1ccccc1 | >76900
Cc1nc(=S)n(-c2ccccc2)[nH]1 | >76900
O=C(CSc1nnc(-c2cccnc2)n1C1CCCCC1)NC1CCCCC1 | >76900
CCOC(=O)CNC(=O)C1CCCN(c2ncccn2)C1 (stereo unspecified) | >76900
O=C(CN1C(=O)COc2ccccc21)NCCN1CCc2ccccc2C1 | >76900
CCC1(C)NC(=O)N(CC(=O)Nc2sc3c(c2C(N)=O)CCC3)C1=O (stereo unspecified) | >76900
CC(=O)Cc1nsc(NC(=O)c2ccc(-c3ccccc3Cl)o2)n1 | >76900
O=C(CSc1nc2ccccc2c2nc3ccccc3n12)NCc1ccco1 | >76900
Cc1oc(-c2ccccc2)nc1Cn1cccc1C1=NC(c2ccccc2)CO1 (stereo unspecified) | >76900
CC1(C)C(C#N)=C(N)OC2=C1C(=O)CCC2 | >76900
CN(C)c1ccc(NC(=O)CC2NCCNC2=O)cc1 (stereo unspecified) | >76900
Cc1cccc(OCc2nnc(SCc3nc4cc(C(F)(F)F)ccc4c(=O)[nH]3)o2)c1 | >76900
Nc1ncnc2nc(SCCN3CCCCC3)[nH]c12 | >76900
O=C(NCCC1=CCCCC1)C1CCN(C(=O)Nc2ccccc2)CC1 | >76900
Cc1cc(C)c(C#N)c(N2CCN(CCOc3ccc(Cl)cc3)CC2)n1 | >76900
O=C(c1ccco1)N1CCN(c2ccc(Cl)cc2)CC1 | >76900
Cc1nc(CCNS(=O)(=O)c2cccs2)cs1 | >76900
CN1C(=O)c2ccccc2C(C(=O)O)C1c1cn(C)c2ccccc12 (stereo unspecified) | >76900
COc1ccc2c(C)cc(SCC(=O)N3CCOCC3)nc2c1 | >76900
COc1ccc(C(C(=O)NC2CCCCC2)N(CC2CCCO2)C(=O)CNC(=O)c2ccco2)cc1 (stereo unspecified) | >76900
CC1(C)CC(N(Cc2cccs2)C(=O)c2ccco2)CCO1 (stereo unspecified) | >76900
Cc1ccc(Cl)cc1-n1c(=O)cc(N2CCN(C(=O)c3ccco3)CC2)[nH]c1=O | >76900
CCn1c(COc2ccc(C)cc2)nnc1SCC(=O)C(C)(C)C | >76900
O=C(c1ccc2c(c1)OCCO2)C1CCN(S(=O)(=O)c2cccc(F)c2)CC1 | >76900
CCCCCC(=O)N1CCN(CCN=CC2=C(O)CC(c3ccc(OC)c(OC)c3)CC2=O)CC1 (stereo unspecified) | >76900
O=C(c1ccc(Br)s1)N1CCN(c2ncccn2)CC1 | >76900
CCOc1ccccc1-n1c(SCC(=O)NCc2ccco2)nnc1-c1ccncc1 | >76900
N#CC1=C(N)Oc2cc(O)ccc2C1c1cccs1 (stereo unspecified) | >76900
O=C(O)C1CCCCC1C(=O)NCCc1ccncc1 (stereo unspecified) | >76900
COc1ccc(CCNC2=NCCS2)cc1 | >76900
O=C1NC(c2ccco2)Nc2ccccc21 (stereo unspecified) | >76900
CC1(C)CC(=O)CC(C)(C)N1OC(=O)c1ccncc1 | >76900
COc1ccc(-n2c(C)cc(C(=O)CSc3nnc(-c4cccs4)o3)c2C)cc1 | >76900
COc1cc(S(=O)(=O)N2CCOCC2)cc(C(=O)c2nccn2C)c1OC | >76900
CCOc1ccc(OCC)c(NC(=O)C2CCN(S(=O)(=O)c3cccc4nonc34)CC2)c1 | >76900
CCOC(=O)N1CCC(c2[nH][nH]c(=O)c2C)CC1 | >76900
CSCCC(NC(=O)OC(C)(C)C)C(=O)NC(CC(C)C)C(N)=O (stereo unspecified) | >76900
COc1ccc(C(O)P(=O)(OC2CCCCC2)c2ccc(N(C)C)cc2)cc1OC (stereo unspecified) | >76900
CC1CN(c2oc(Cc3cccc4ccccc34)nc2C#N)CC(C)O1 (stereo unspecified) | >76900
CCOC(=O)NCc1ccc2c(c1)cc(C)n2C | >76900
CN(CCC#N)c1ncnc2scc(-c3ccccc3)c12 | >76900
CCOC(=O)N1CCC(n2c(SCC(=O)Nc3ccccc3OC)nc3ccccc3c2=O)CC1 | >76900
COc1ccccc1-c1nc(C#N)c(NCc2ccc(F)cc2)o1 | >76900
CC1CCCCC1NC(=O)c1ccc(S(=O)(=O)NCc2ccco2)cc1 (stereo unspecified) | >76900
Cc1cc(=O)n2c3c(cccc13)CCC2 | >76900
Cc1nc(SCC(=O)NCc2ccco2)c2c(C)c(C)sc2n1 | >76900
C=CCOc1ccc2c(c1)c(S(=O)(=O)c1ccc(C)cc1)cn2COC | >76900
C=CCc1cccc(CNc2nc3ccccc3n2CCC)c1O | >76900
CCN(CC)C(=O)CN(c1ccc(F)c(Cl)c1)S(C)(=O)=O | >76900

Once more, the final 4:

- Cc1nc(SCC(=O)NCc2ccco2)c2c(C)c(C)sc2n1 : fitted potency >76900 nM
- C=CCOc1ccc2c(c1)c(S(=O)(=O)c1ccc(C)cc1)cn2COC : fitted potency >76900 nM
- C=CCc1cccc(CNc2nc3ccccc3n2CCC)c1O : fitted potency >76900 nM
- CCN(CC)C(=O)CN(c1ccc(F)c(Cl)c1)S(C)(=O)=O : fitted potency >76900 nM